The values below come from publication PMC9237128, “Molecular insights into intra-complex signal transmission during stressosome activation” (Communications Biology, 2022).

The target of this experiment is Listeria innocua RsbR/RsbS stressosome complex (LiRsbRS) (Listeria innocua) (UniProt Q92DC6+Q7AP18). Kind of experiment: negative stain EM; first fraction of LiRsbRS from the DEAE run (eluted at 50 mM NaCl); also SEC peak fractions at 100-1000 mM NaCl, with more interaction between complexes at higher ionic strength; both purified.

Results are given in words; binding and its absence hold for the method and conditions named. Some entries that bind do so weakly or less than the wild type.

B1: Listeria innocua RsbR/RsbS stressosome complex (LiRsbRS) (complex, UniProt Q92DC6 1-278; Q7AP18 1-118)
chain 1: MYKDFANFIRTNKKDLLNNWMNEMEKQSDPLINDIAKEPMYEETSIEFVDLIVSNITENGSKFNEKLDDFAEKVVHLGWPIHFVTTGLRVFGLLVYTAMRDEDLFLKREEKPEDDAYYRFETWLSSMYNKVVTAYADTWEKTVSIQKSALQELSAPLLPIFEKISVMPLIGTIDTERAKLIIENLLIGVVKNRSEVVLIDITGVPVVDTMVAHHIIQASEAVRLVGCQAMLVGIRPEIAQTIVNLGIELDQIITTNTMKKGMERALALTNREIVEKEG
chain 2: MGIPILKLGECLLISIQSELDDHTAVEFQEDLLAKIHETSARGVVIDITSIDFIDSFIAKILGDVVSMSKLMGAKVVVTGIQPAVAITLIELGITFSGVLSAMDLESGLEKLKQELGE
modifications: phosphothreonine at 241 (in RsbR protomers interacting with RsbS)
Take B1: the binding result is recorded as “binds”.
